Reference: PMC12850156

The chains behind the UniProt entries cited, without tags or fusion partners.
UniProt P49792: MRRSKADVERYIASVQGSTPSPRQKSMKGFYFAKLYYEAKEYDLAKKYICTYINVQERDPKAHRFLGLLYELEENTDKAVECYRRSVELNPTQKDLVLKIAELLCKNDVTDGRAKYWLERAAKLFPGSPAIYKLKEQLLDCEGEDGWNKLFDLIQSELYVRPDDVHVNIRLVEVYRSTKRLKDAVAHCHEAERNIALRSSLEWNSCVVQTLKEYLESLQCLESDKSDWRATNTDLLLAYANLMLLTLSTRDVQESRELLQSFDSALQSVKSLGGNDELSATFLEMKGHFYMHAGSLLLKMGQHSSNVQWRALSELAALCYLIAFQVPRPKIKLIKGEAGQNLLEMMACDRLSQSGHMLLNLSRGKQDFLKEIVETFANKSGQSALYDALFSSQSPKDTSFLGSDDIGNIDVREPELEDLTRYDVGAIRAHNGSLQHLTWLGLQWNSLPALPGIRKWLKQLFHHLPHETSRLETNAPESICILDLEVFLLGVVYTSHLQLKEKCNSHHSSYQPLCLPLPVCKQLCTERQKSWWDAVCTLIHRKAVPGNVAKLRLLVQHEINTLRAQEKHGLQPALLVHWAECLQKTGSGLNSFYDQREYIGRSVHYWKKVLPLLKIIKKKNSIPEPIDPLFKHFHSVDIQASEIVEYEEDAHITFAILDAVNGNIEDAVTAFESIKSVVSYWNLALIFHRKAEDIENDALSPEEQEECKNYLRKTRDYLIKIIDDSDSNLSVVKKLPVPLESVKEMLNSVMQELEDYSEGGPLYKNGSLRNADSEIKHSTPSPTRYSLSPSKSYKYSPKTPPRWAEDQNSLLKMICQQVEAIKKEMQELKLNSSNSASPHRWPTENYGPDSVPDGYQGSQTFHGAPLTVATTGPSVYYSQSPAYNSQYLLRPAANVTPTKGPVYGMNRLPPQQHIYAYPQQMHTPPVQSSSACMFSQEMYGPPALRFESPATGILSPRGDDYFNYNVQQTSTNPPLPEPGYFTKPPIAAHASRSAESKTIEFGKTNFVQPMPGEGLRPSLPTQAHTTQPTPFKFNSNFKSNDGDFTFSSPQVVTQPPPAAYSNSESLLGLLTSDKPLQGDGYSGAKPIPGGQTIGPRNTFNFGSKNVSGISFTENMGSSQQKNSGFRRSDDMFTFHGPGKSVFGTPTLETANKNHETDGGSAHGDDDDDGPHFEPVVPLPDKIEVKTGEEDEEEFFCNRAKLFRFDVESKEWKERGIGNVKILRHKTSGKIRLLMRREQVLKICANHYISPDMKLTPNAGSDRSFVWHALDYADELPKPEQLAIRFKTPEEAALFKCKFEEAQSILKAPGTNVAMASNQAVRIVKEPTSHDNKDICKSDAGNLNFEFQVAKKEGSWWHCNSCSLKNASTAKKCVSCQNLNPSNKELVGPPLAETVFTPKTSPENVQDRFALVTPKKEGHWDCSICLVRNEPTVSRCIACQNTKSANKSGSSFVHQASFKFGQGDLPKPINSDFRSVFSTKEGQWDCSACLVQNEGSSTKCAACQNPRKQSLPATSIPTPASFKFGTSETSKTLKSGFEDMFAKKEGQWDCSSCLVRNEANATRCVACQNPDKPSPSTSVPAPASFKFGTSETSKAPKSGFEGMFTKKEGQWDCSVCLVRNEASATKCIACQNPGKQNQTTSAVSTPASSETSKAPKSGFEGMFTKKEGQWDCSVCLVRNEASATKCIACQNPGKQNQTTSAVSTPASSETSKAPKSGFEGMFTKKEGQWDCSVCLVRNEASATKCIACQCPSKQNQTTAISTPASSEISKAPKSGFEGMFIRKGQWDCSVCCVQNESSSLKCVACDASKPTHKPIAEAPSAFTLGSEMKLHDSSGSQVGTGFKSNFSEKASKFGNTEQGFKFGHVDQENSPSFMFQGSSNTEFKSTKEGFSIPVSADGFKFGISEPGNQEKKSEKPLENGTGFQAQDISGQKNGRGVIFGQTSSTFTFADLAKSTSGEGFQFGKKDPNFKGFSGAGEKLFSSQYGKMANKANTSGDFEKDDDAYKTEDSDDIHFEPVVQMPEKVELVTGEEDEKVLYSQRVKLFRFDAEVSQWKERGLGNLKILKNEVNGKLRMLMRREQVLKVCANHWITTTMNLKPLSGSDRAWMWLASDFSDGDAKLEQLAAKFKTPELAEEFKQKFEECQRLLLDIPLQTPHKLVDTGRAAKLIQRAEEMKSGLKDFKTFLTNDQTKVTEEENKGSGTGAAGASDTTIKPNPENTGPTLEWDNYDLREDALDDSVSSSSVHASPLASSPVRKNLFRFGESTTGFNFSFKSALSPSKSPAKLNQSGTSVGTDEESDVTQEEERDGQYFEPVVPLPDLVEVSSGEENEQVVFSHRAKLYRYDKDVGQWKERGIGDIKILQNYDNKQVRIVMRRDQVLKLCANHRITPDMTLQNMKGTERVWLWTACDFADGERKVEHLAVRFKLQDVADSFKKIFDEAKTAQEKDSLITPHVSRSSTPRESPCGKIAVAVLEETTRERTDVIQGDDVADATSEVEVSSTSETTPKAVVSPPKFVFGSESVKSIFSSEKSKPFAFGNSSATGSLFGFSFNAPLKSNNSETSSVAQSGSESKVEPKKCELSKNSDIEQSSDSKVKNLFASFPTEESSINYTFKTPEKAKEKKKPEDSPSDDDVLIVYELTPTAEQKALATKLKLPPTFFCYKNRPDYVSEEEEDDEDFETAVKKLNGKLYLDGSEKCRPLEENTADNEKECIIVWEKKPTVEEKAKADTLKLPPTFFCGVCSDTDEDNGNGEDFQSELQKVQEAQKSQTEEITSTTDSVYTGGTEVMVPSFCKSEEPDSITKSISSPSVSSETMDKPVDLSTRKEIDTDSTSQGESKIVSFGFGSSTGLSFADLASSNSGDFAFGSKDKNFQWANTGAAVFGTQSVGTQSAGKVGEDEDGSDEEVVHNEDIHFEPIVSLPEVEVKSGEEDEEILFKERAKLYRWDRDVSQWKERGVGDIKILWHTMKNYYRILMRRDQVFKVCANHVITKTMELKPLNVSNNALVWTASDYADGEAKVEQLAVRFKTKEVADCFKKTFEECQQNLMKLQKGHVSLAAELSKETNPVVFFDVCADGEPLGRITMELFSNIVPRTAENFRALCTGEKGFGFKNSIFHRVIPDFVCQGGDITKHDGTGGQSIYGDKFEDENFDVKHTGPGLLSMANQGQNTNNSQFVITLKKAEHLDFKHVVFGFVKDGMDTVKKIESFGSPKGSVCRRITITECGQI
UniProt Q12905: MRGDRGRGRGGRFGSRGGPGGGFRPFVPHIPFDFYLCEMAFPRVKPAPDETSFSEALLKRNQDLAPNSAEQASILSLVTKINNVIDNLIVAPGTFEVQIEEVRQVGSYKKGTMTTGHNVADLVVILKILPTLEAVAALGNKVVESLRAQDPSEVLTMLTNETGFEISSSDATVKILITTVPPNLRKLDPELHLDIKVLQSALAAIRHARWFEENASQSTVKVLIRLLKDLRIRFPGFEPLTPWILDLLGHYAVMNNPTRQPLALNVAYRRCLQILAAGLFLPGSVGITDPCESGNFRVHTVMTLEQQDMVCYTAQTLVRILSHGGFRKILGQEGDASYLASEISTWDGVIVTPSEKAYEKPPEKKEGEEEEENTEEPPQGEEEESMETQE
UniProt Q9UER7: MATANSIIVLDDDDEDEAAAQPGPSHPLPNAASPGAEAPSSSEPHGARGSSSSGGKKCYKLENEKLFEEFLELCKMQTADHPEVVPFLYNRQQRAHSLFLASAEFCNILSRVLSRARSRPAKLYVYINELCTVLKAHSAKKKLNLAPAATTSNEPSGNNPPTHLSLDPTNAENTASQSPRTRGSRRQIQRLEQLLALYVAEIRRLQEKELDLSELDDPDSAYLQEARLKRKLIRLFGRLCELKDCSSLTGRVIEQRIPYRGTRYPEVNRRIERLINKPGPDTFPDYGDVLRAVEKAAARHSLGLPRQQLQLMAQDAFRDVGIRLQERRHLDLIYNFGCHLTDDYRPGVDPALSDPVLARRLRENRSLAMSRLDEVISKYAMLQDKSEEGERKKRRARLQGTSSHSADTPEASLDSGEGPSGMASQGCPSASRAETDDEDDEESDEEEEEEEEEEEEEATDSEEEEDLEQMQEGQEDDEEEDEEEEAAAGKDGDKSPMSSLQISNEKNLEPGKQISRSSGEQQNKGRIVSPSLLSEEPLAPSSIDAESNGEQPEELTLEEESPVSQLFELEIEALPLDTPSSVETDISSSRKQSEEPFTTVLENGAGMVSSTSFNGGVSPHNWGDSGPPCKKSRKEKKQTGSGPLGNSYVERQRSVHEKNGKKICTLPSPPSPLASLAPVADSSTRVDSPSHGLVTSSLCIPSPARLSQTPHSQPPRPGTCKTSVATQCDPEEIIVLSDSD

molecular target: T1, Flag-NUSAP1 (human) (UniProt Q9BXS6); experiment: affinity purification with mass spectrometry; MDA-MB-231 cells stably expressing Flag-NUSAP1, 10 µM MG132 for 6 h, NETN lysis buffer; anti-Flag magnetic beads, 4 °C, 2 h; SDS-PAGE and LC-MS/MS
T1 sequence: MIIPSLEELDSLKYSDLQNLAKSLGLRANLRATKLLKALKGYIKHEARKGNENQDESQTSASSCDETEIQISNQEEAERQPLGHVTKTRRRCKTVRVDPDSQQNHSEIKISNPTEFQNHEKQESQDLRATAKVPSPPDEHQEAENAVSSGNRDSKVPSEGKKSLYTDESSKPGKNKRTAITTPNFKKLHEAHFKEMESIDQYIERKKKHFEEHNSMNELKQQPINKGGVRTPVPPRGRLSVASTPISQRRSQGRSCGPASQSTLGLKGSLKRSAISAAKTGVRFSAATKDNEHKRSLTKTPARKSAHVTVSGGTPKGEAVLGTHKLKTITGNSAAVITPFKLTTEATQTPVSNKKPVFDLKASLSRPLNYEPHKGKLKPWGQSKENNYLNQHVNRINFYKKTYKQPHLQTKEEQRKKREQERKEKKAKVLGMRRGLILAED

Substance	binding
RanBP2 (from UniProt P49792 1-3224)	binds
ILF2 (from UniProt Q12905 1-390)	binds
DAXX (in TNBC cells) (from UniProt Q9UER7 1-740)	binds

These are yes or no findings as the source states them, for the method shown. Binding seen in cells or lysates may run through a third protein. These calls come from enrichment with a bait or labelling near it, and not all partners need be listed. Where a sequence is shown, tags or fusion partners need not be part of it.
